Paper PMC9726905
These are yes or no findings as the source states them, for the method shown. Binding seen in cells or lysates may run through a third protein. A result given as binding can be weak or reduced; the word gives no strength. Where a sequence is shown, tags or fusion partners need not be part of it.

Molecular target: T1, V5-SBP-DAP5 MIF4G (DAP5 MIF4G domain alone) (human) (UniProt P78344)
T1 sequence: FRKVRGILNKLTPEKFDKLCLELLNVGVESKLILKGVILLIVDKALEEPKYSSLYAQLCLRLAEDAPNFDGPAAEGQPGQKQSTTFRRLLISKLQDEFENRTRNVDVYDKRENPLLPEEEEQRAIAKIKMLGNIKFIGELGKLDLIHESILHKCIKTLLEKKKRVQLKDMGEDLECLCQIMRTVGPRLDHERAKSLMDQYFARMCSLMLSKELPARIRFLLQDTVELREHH
Test: pull-down; streptavidin pulldown of V5-SBP-tagged proteins from transfected HEK293T lysates (NET buffer), in the presence of RNase A; immunoblotting

eIF4A (human (endogenous in HEK293T))
binding: binds
